Measured values: PMC3549492
No constants are given. Whether binding was seen depends on the method and setting. For some assays here: Binding seen in cells or lysates may run through a third protein. Some entries that bind do so weakly or less than the wild type. For some assays here: Tags and fused reporters may be left off the sequences shown. Values belong to the molecule of their own block, whether it stands above or below them.

How the values were obtained:
[1] = target: T1, Doublecortin (Dcx), endogenous, human fetal cortex (human (endogenous in fetal cortex)) (UniProt O43602); assay: co-IP; endogenous proteins from human fetal cortex (23 weeks) lysate; antisera to Dcx (C terminus) and to Kif1a; 2 mM AMP-PNP; BSA-blocked protein G beads; western blot
T1 sequence: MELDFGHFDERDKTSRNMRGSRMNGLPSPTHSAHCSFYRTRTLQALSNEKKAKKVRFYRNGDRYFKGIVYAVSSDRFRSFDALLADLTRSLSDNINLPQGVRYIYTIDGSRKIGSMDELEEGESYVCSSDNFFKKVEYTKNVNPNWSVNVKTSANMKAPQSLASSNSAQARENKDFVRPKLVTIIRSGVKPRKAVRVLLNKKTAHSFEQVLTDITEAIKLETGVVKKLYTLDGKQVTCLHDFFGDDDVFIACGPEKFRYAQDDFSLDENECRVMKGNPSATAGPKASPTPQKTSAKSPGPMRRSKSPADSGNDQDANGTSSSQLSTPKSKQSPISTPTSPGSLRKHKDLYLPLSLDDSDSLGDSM

[2] = target: Kif1a, endogenous, human fetal cortex (human (endogenous in fetal cortex)) (UniProt Q12756); assay: as above
[3] = target: T2, N-terminal HaloTag human KIF1A (amino acids 1-361) fusion protein (human) (UniProt Q12756); assay: cross-linking; BS3 (1 mM, 100-fold excess); 10 μM each of Dcx, Kif1a and MTs; 4 mM ATP; BRB80 pH 6.9; room temperature; SDS-PAGE, silver staining, protein identification by mass spectrometry; both purified
T2 sequence: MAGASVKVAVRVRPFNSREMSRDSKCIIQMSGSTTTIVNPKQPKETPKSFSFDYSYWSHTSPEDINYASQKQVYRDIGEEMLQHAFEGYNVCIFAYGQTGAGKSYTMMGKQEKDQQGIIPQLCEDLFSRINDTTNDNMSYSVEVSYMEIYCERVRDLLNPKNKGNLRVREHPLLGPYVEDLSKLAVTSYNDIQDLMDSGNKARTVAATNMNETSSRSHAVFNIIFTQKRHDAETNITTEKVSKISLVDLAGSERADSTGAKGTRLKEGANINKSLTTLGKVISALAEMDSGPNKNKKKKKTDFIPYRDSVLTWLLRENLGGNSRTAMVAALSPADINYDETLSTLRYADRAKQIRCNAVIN

[4] = target: T2, N-terminal HaloTag human KIF1A (amino acids 1-361) fusion protein (human); assay: pull-down; HaloTag-Kif1a (1-361) on HaloLink magnetic beads; 5 μM of each protein; 4 mM ATP, ADP or AMP-PNP; no MTs or tubulin; 100 mM Tris pH 7.4, 150 mM NaCl, 4 mM MgCl2, 1 mM EGTA, 1 mM DTT, 0.5% Triton X-100; room temperature; SDS-PAGE, silver staining; both purified
[5] = target: T2, N-terminal HaloTag human KIF1A (amino acids 1-361) fusion protein (human); assay: cross-linking; data not shown; no MTs and no nucleotide; concentrations >15 μM; method taken from the sentence before; both purified

binding [1]: binds
Molecule: Kif1a, endogenous, human fetal cortex (from UniProt Q12756 1-1690)

binding [2]: binds weakly
B1: Doublecortin (Dcx), endogenous, human fetal cortex (protein, UniProt O43602 1-365)
chain: T1 sequence

binding [3]: binds | binding [4]: binds | binding [5]: binds
B2: overexpressed and purified full-length human Dcx (protein, UniProt O43602 1-365)
chain: T1 sequence
